Our source for the binding signal values is publication PMC7819943, “Rice protein-binding microarrays: a tool to detect cis-acting elements near promoter regions in rice”.

Chains of the proteins cited; added tags and fusions are not shown.
UniProt Q0JBA9, entry or part of it: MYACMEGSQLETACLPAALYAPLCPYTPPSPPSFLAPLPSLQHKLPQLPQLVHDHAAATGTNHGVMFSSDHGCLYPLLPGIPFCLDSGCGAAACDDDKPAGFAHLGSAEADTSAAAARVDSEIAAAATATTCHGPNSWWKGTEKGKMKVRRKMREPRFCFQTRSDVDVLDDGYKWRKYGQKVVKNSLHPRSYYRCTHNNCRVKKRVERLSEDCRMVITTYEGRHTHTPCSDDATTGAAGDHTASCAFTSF

Some of the results follow.

The assay addresses OsWRKY34 (Oryza sativa, UniProt Q0JBA9 1-250). The assay can be described thus: protein-binding microarray (RPBM); PBS, 2% BSA, 51.3 ng/ul salmon testes DNA, 50 uM zinc acetate, 200 nM TF, 25 C, 1 h; high values mean tight binding. The conditions noted are these: protein: recombinant; tags: N-terminal polyhistidine and DsRed monomer fusion (pET32a); label: CyDye5-dUTP incorporated in the synthesized complementary strand; 3' TTTTT single-stranded linker to array surface; dsDNA, one strand shown. The gist of the method:
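Binding signal is defined as the fluorescence intensity of each feature in arbitrary units, read on an Axon 4000B scanner. Transcription factors with N-terminal polyhistidine and DsRed fusions came from E. coli BL21-CodonPlus and were purified on Ni–NTA. They were incubated at 200 nM for 1 h at 25 °C on a custom Agilent array that had been made double-stranded with Cy5-dUTP, with 50 µM zinc acetate present, and the array was washed.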
As to “CTGCATCGTCGACATTTACTATTTCAGCTTTTACACTATTCGGAGTCACCTAGTGCAG”, the binding signal is 11200 fluorescence intensity (a.u.).
As for “AATCACAACCATACACCACTCATTTCTACCTACTTTCTTACGGAGTCACCTAGTGCAG”, the figure is 10100 fluorescence intensity (a.u.).
As for “CTATAGTGTGGACGTACGTTGACCACCCACATCGACGATGCGGAGTCACCTAGTGCAG”, the figure is 9000 fluorescence intensity (a.u.); as for “AGCCCTGTGGCAATTTGAGCATTTTTCCCGGAAGCAACGCCGGAGTCACCTAGTGCAG”, 8190 fluorescence intensity (a.u.).
As for “TTCCGGGCACGCCGATCACGCACGCCGGCCGCGCCCGCCTCGGAGTCACCTAGTGCAG”, the figure is 9260 fluorescence intensity (a.u.).
As for “GTCGCCCGCGCCGGCGCCCGCGCCGGCCACCCTATCCGCCCGGAGTCACCTAGTGCAG”, the binding signal was 8500 fluorescence intensity (a.u.).
The same measure for “CGTCGGCCCTTGTATTTTTGCAAAAAGGCCCTTTATTTTACGGAGTCACCTAGTGCAG”: 9220 fluorescence intensity (a.u.).
As for “GCGGCGATCGATTTGTATATCAATATATGCTGTTCTTGTGCGGAGTCACCTAGTGCAG”, the figure is 8380 fluorescence intensity (a.u.); as for “CATATTTGTTGGATTATAAACATACGTTTCCTGTGATTCACGGAGTCACCTAGTGCAG”, 8990 fluorescence intensity (a.u.).
The same measure for “GCTATTCAAACCGTCGTGAGGCCTTATTTGCACTGATTTTCGGAGTCACCTAGTGCAG”: 12800 fluorescence intensity (a.u.).
For the sequence “CGCCGCTCACCTGCCAACCCACTCGACCGCGCGCCGCCGGCGGAGTCACCTAGTGCAG”, the binding signal was 10900 fluorescence intensity (a.u.).
The same measure for “GGTCAAATTCTCATTTTGCAATATCCCACAGCTAATTACACGGAGTCACCTAGTGCAG”: 9540 fluorescence intensity (a.u.); for “GTCTTGGGCTTTTGGTGTCATGTTTTTCCTATTTTGCTAGCGGAGTCACCTAGTGCAG”: 8430 fluorescence intensity (a.u.).
For “TGGTGGATGCCCTGGAGGTTTGGGTTGAGATGGGAGTAGACGGAGTCACCTAGTGCAG”, the binding signal is 9770 fluorescence intensity (a.u.).
With “GTTACTGATCACACTACTTGTACTTTCCGCAAGTCATGCACGGAGTCACCTAGTGCAG”, the binding signal is 10500 fluorescence intensity (a.u.).
“ACCCTGCGTATCTGATTTTGCGGTTCGAGGATGTTTTTTACGGAGTCACCTAGTGCAG”: the binding signal is 8660 fluorescence intensity (a.u.).
As for “ACTCCGCCGCCTTCTGCTTCATGCGCAACTCCAATTCGGGCGGAGTCACCTAGTGCAG”, the figure is 10500 fluorescence intensity (a.u.); as for “GCTGCCTCTGTGCTCTCCGTCCCGGCACCGGCACGACACCCGGAGTCACCTAGTGCAG”, 9000 fluorescence intensity (a.u.).
As for “AGCGGGCTTTGGTGCTTAAGTTCTTTCGGGTTTGTGTTCTCGGAGTCACCTAGTGCAG”, the figure is 11700 fluorescence intensity (a.u.); as for “ATAGCTCATTTGACCATCTTCCATCTATAGCTGTTAGCCACGGAGTCACCTAGTGCAG”, 13600 fluorescence intensity (a.u.).
As for “CAACGTGTCACCTGATCAACACGCCACCTCGCTAACCGTACGGAGTCACCTAGTGCAG”, the figure is 8760 fluorescence intensity (a.u.); as for “TTACATCAATTTCAGAGTAAGTATGGTTGGTTGGTTGGTTCGGAGTCACCTAGTGCAG”, 13400 fluorescence intensity (a.u.); as for “CTGTCTCGTGTCTGGGCTGGTGCGACCAACTGGTTCAAAACGGAGTCACCTAGTGCAG”, 8210 fluorescence intensity (a.u.).
With “AAACCACACCATCAAATTCTTGCTCAATTTGTCAAATACTCGGAGTCACCTAGTGCAG”, the binding signal is 8300 fluorescence intensity (a.u.).
The same measure for “ACACCACCTTAGTAGCTTACCGGCACAATAAGCATGCTCTCGGAGTCACCTAGTGCAG”: 9990 fluorescence intensity (a.u.); for “CCGCCCACCAAAACCCTCGCCGCGGCCTCCGCCGCCGCGGCGGAGTCACCTAGTGCAG”: 8240 fluorescence intensity (a.u.); for “TTGCTGCCTCTCTCCCTACTCCTATCGCTGTTCATGTTGTCGGAGTCACCTAGTGCAG”: 9480 fluorescence intensity (a.u.).
Turning to “CCCTACTCTGTACTTAATCTTCAATAAATTTGTGTCCTTGCGGAGTCACCTAGTGCAG”, the binding signal was 8390 fluorescence intensity (a.u.).
The same measure for “GAGGGGTTTCCGGATTTATGTGTTGAAATTGTTTTTTGTTCGGAGTCACCTAGTGCAG”: 8810 fluorescence intensity (a.u.); for “AGCCTGGTGCCGTGATGTGCTGACGATGCTCCATGACGACCGGAGTCACCTAGTGCAG”: 8220 fluorescence intensity (a.u.).
As for “CTGACCCCACAGTGATACTCAGCTTCTATTTGCATTGCCGCGGAGTCACCTAGTGCAG”, the figure is 8290 fluorescence intensity (a.u.); as for “TAATTTCAATCCTAGTTATATTCCTGGACAAGTGCATGTTCGGAGTCACCTAGTGCAG”, 8710 fluorescence intensity (a.u.).
As for “TCGCGCGCGGCACACCTTCACGCTGCACCAATCCGCATCGCGGAGTCACCTAGTGCAG”, the figure is 8210 fluorescence intensity (a.u.).
Take “GTGCTAGACTTTCTTTAGAAATTTTGAGGTCTTTTTTATACGGAGTCACCTAGTGCAG”: the binding signal is 9680 fluorescence intensity (a.u.).
As to “GGGACTCATGCAACATATCATTGCCATCGATCGATCTCCGCGGAGTCACCTAGTGCAG”, the binding signal is 11100 fluorescence intensity (a.u.).
The same measure for “CCATCCGTTATATATACTTTACATTACATATACTGCTTGTCGGAGTCACCTAGTGCAG”: 11100 fluorescence intensity (a.u.); for “ATTTAGCTCTCTCTCTCTCTCTCACCTGCTCCTACTTACACGGAGTCACCTAGTGCAG”: 9470 fluorescence intensity (a.u.).
As for “GTTGGGAAGGAAAGGGAGGGGTTGGTGCTCTCCTCCTCTTCGGAGTCACCTAGTGCAG”, the figure is 9740 fluorescence intensity (a.u.); as for “CCGGTCCAAGCACAGCAGCTTCTCAACTTCTCCACGTTTTCGGAGTCACCTAGTGCAG”, 9910 fluorescence intensity (a.u.).
As for “GCATGACATAAATATTTTCATATTTGCACAAAATTTTTAACGGAGTCACCTAGTGCAG”, the figure is 8890 fluorescence intensity (a.u.); as for “CACCACGCTCGCTCCATCGATTCCTTGTTCTAGTGTTTCTCGGAGTCACCTAGTGCAG”, 15000 fluorescence intensity (a.u.); as for “CCGCCTCGCCGACCTCGGACCCCGGCCTCCATCCTCCTCGCGGAGTCACCTAGTGCAG”, 9450 fluorescence intensity (a.u.).
